Results on 1 substance are retold here after patent US20140378387A1.

Protein sequences, listed by entry. Tags and fused reporters are not part of them. Residues count along the entry.
UniProt P04797: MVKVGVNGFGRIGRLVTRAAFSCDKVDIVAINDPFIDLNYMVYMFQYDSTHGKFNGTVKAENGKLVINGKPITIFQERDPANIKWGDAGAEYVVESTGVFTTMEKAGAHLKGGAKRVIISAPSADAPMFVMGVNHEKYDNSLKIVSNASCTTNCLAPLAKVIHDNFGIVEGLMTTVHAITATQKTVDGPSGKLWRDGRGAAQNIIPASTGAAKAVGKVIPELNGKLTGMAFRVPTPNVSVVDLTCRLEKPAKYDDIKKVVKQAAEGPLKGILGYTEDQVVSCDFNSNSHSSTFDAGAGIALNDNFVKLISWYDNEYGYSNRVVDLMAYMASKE
UniProt P19491, residues 22-883: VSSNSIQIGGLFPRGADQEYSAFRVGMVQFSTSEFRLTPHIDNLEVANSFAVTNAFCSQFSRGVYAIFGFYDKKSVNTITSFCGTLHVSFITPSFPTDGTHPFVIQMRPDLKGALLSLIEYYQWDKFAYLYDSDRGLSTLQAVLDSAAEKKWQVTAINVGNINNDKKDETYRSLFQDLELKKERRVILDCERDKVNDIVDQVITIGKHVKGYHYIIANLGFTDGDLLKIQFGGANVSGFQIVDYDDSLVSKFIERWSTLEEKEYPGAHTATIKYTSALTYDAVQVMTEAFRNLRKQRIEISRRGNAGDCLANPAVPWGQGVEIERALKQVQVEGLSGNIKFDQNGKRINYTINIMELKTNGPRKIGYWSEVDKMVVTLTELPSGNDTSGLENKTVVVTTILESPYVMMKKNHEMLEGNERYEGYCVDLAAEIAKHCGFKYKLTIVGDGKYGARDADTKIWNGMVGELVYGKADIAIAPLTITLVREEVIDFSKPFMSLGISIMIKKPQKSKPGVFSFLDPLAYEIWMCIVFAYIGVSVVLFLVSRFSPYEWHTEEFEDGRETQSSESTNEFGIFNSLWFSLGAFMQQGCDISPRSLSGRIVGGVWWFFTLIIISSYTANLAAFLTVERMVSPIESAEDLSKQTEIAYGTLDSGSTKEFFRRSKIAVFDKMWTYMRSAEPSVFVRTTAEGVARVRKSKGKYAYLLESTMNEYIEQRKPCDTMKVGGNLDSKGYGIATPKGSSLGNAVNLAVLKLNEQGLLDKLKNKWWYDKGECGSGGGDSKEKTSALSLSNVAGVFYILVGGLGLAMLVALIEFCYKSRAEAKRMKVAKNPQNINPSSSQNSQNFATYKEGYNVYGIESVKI

Assay [1] addresses GAPDH (glyceraldehyde-3-phosphate dehydrogenase), rat, endogenous (rat) (UniProt P04797). Nature of the assay: co-immunoprecipitation from rat spinal cord tissue with a GluR2 antibody.
Assay [2] shares this target. Nature of the assay: co-immunoprecipitation from rat spinal cord protein extract with a GluR2 antibody.

Results are given in words; binding and its absence hold for the method and conditions named. Binding seen in cells or lysates may run through a third protein. Some entries that bind do so weakly or less than the wild type.

“GluR2 subunit of AMPAR (rat, endogenous, from spinal cord protein extract) (from UniProt P19491 22-883) (receptor)”: the binding result in assay [1] and in assay [2] was “binds” throughout.
